US20050065348A1, “Pyridin-2-yl-methylamine derivatives for treating opioid dependence” (priority 2001, published 2005)

System: morphine withdrawal syndrome (hyperalgesia)
Experiment: Effects on morphine dependence: naloxone-precipitated withdrawal hyperalgesia (Randall and Selitto nociceptive thresholds)
Type: in vivo
Conditions: rat; morphine 5 mg/rat/day + saline, s.c. osmotic mini-pumps 2 weeks; naloxone 0.63 mg/kg s.c.; SNK p<0.05

CN1CC[C@]23c4c5ccc(O)c4O[C@H]2[C@@H](O)C=C[C@H]3[C@H]1C5 [morphine, Morphine chlorhydrate]
AUC of nociceptive thresholds 30 minutes to 4 days after naloxone, morphine alone versus physiological serum: significantly weaker
